Some of the results follow.

For the experiment, the system named is T1, CTL2-GFP (C. trachomatis L2/434/Bu, GFP-expressing).
T1 construct: L2/434/Bu, GFP-expressing
Set-up: species or system HeLa; Intracellular C. trachomatis growth in HeLa cells, bulk GFP fluorescence relative to DMSO. The settings on record: bulk GFP, single well; 28.5 h, 10 µM; inhibitor.
Consider `COc1cc(/C=C2\N=C(c3cc(Cl)ccc3OC)OC2=O)ccc1OC(=O)c1ccccc1` [CBK265069], for which the “% of control remaining” value was determined as 135.14%.

With `CCN(C(=O)C(C)N(C)Cc1c(C)nn(C2CCS(=O)(=O)C2)c1C)c1cccc2ccccc12` (stereo not shown) [CBK295206], the “% of control remaining” value turned out to be 156.822%.

For `Nc1ncnc(Nc2cc(C(F)(F)F)cc(C(F)(F)F)c2)n1` [CBK006617], the “% of control remaining” value was found to be 122.055%.

On to `CCCOc1nccnc1N1CCNCC1` [CBK001839G], for which the “% of control remaining” value was determined as 125.754%.

In the case of `NC(=O)CSc1nnc(COc2cccc(Cl)c2)n1-c1ccccc1` [CBK267685], the “% of control remaining” value is given as 123.896%.

On to `CCC(CC)C(=O)N1CCCC(c2cc3cccnc3[nH]2)C1` (stereo not shown) [CBK284926], for which the “% of control remaining” value was 91.807%.

On to `Cc1nn(C)cc1-c1cncn1Cc1ccccc1CN(C)C` [CBK281985], for which the “% of control remaining” value was determined as 98.2952%.

Consider `COc1ccccc1-c1c(O)n[nH]c1CCC1CCCC1` [CBK075128], for which the “% of control remaining” value worked out at 130.629%.

As for `Nc1ncc(-c2ccccc2CO)nc1Nc1ccc2[nH]ccc2c1` [CBK063843], the “% of control remaining” value came out at 124.096%.

Consider `CNC(=O)c1cccc(NC(=O)C(C)N(C)Cc2cnc(C)s2)c1` (stereo not shown) [CBK305735], for which the “% of control remaining” value came to 101.002%.

On to `NS(=O)(=O)c1ccc(S(=O)(=O)N2CCN(C/C=C/c3ccccc3)CC2)cc1` [CBK266723C], for which the “% of control remaining” value came out at 157.953%.

With `O=C(NCc1ccccc1)c1cccc(NC(=O)c2cc(-c3ccncc3)nc3ccc(Cl)cc23)c1` [CBK267769], the “% of control remaining” value is recorded as 94.8856%.

As to `CCN(CC)c1ccc(NC(=O)N(CCCN2CCOCC2)Cc2ccc(OC)c(OC)c2)cc1` [CBK159168], the “% of control remaining” value came out at 118.516%.

In the case of `Cc1ccc(C(=O)NCCc2ccc(S(N)(=O)=O)cc2)c(N2CCN(C(=O)c3ccco3)CC2)n1` [CBK076345], the “% of control remaining” value stood at 141.101%.

For the molecule `NC(=O)c1c(NC(=O)c2cnn3cccnc23)sc2c1CCCC2` [CBK268437], the “% of control remaining” value is recorded as 150.044%.

As for `c1ccc2c(OCCOCCN3CCCCC3)cccc2c1` [CBK262000], the “% of control remaining” value was 110.862%.

Regarding `COc1cc(/C=N/n2cnnc2)ccc1OCCOc1ccc(C(C)(C)C)cc1` [CBK263762], the “% of control remaining” value is reported as 108.127%.

With `CCN(CC)C(=O)N1CCC(c2cccnc2)CC1` [CBK283535], the “% of control remaining” value was found to be 124.398%.

`O=C(C[C@@H]1O[C@H](CNCc2cccc(Cl)c2)[C@@H](O)[C@H]1O)N1CCc2ccccc21` [CBK288918]: the “% of control remaining” value is given as 127.036%.

On to `c1ccc(-c2cc(CC3(NCC4CCCCC4)COC3)no2)nc1` [CBK289644], for which the “% of control remaining” value is on record as 101.527%.

With `COCCNc1cc(-c2ccc(Cl)cc2)ncn1` [CBK090797], the “% of control remaining” value turned out to be 101.956%.

Regarding `CN(C)CCNC(=O)Cc1csc(-c2ccc(Cl)cc2)n1` [CBK107299], the “% of control remaining” value is 106.677%.

These data come from paper PMC12040169 (PLOS Biology, 2025).
